PubChem BioAssay AID493014 (National Center for Advancing Translational Sciences (NCATS), 2011)
This is one part of the list. Shown are side measurements of this screen, not its main read-out; they come without a call. Compounds called inactive in the main read-out are mostly missing here. Words in brackets tell the shape of the fitted curve; partial curves, single points and poor fits give uncertain potencies.

Assay: qHTS Assay to Find Inhibitors of Chronic Active B-Cell Receptor Signaling
Conditions: ABC-DLBCL IkBa-CBG/CBR reporter, luminescence ratio (green luciferase fused to IkBa over red control in TMD8 lymphoma cells), 4 h
How it was run: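 Cell line TMD8 (human ABC DLBCL), stably expressing tet-inducible CBG68-IkBa fusion and CBR; IMDM/0.5% FBS; cpd up to 46 uM; dox induction, 4 h, 37C/5% CO2; dual luminescence; green/red ratio; MG132 control.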

[1] = measured here: CBR red luminescence, cell number
[2] = measured here: IkBa-CBG green luminescence

Structure (SMILES): O=C(N/N=C/c1ccc(Cl)cc1)c1ccc2c(c1)OCO2
- AC50 [1]: 7.94 µM [falling, partial curve]

Structure (SMILES): COc1ccc(C(=O)Nc2nc3ccccc3[nH]2)cc1S(=O)(=O)N1CCCC1
- AC50 [1]: 2.91 µM [falling, partial curve, poor fit]

Structure (SMILES): O=C(Nc1nnc(-c2ccc3c(c2)CCCC3)o1)c1ccc(Cl)cc1Cl
- AC50 [1]: 29.1 µM [falling, single point]

Structure (SMILES): COc1cccc2c1[C@@H]1CN(CCCCn3c(=O)[nH]c4c(sc5ncc(-c6ccccc6)nc54)c3=O)C[C@@H]1CO2
- AC50 [1]: 20.6 µM [falling, single point]
- AC50 [2]: 32.6 µM [rising, partial curve, poor fit]

Structure (SMILES): COC(=O)c1ccc(NC(=O)Nc2ccc([N+](=O)[O-])cc2)cc1
- AC50 [1]: 3.16 µM [falling, partial curve, poor fit]

Structure (SMILES): CCOc1ccc(S(=O)(=O)N2CCC(C(=O)Nc3cccc(NC(C)=O)c3)CC2)cc1
- AC50 [1]: 2 µM [falling, partial curve]

Structure (SMILES): CC(=O)Nc1ccc2c(c1)ncn2-c1ccccc1
- AC50 [1]: 11.2 µM [falling, partial curve]

Structure (SMILES): CCOC(=O)/C(=N/Nc1ccc(OC)cc1)N1CCCc2ccccc21
- AC50 [1]: 3.16 µM [rising, partial curve, poor fit]

Structure (SMILES): COc1ccc(C(=O)OCC(=O)c2ccc(Cl)s2)c(OC)c1OC
- AC50 [1]: 7.31 µM [rising, partial curve, poor fit]

Structure (SMILES): COc1ccc(OCc2n[nH]c(=S)o2)cc1
- AC50 [1]: 29.1 µM [falling, single point]

Structure (SMILES): CC(=O)c1c(Nc2cccc(F)c2)oc(C)cc1=O
- AC50 [1]: 35.5 µM [rising, partial curve, poor fit]

Structure (SMILES): Cc1cc(C(=O)N/N=C/c2ccc3c(c2)OCO3)c2ccccc2n1
- AC50 [2]: 15.8 µM [falling, partial curve, poor fit]

Structure (SMILES): Cc1ccc(OCc2cc(C(=O)NC(C)Cc3cnccn3)no2)cc1C (configuration not stated)
- AC50 [1]: 17.8 µM [falling, single point]

Structure (SMILES): CCOc1ccc(C2C(C#N)=C(N)Oc3cc(C)n(Cc4ccco4)c(=O)c32)cc1OC (configuration not stated)
- AC50 [1]: 1.3 µM [rising, full curve]

Structure (SMILES): O=c1c2ccccc2nc(/C=C/c2ccc(O)cc2)n1CCc1ccccc1
- AC50 [1]: 1.3 µM [falling, full curve]

Structure (SMILES): Clc1ccc(CON/C=N/c2ncnc3sccc23)cc1
- AC50 [1]: 2.51 µM [falling, full curve]

Structure (SMILES): CC1(CCc2ccccc2)NC(=S)N(c2ccc(Cl)cc2)N1 (configuration not stated)
- AC50 [1]: 2.91 µM [rising, partial curve, poor fit]

Structure (SMILES): COc1ccc(-c2cn3nc(SCC(=O)NCC4CCCO4)ccc3n2)cc1 (configuration not stated)
- AC50 [1]: 0.447 µM [falling, full curve, poor fit]

Structure (SMILES): Cc1ccc(-c2csc(NC(=O)/C=C/c3ccco3)c2C(=O)O)cc1
- AC50 [1]: 20 µM [falling, single point]

Structure (SMILES): Cc1ccc(C)c(N2CCN(CCCNC(=O)CCC(=O)N3CCOc4ccc(Cl)cc43)CC2)c1
- AC50 [1]: 11.2 µM [falling, partial curve, poor fit]

Structure (SMILES): CCC(CC)C(=O)Nc1ccc(C(=O)Nc2cc(C)on2)cc1
- AC50 [1]: 0.891 µM [falling, partial curve]

Structure (SMILES): O/N=C/c1ccc(OCc2ccccc2)c(Br)c1
- AC50 [1]: 1.03 µM [rising, full curve]

Structure (SMILES): O=C(COC(=O)CC(c1ccccc1)c1ccccc1)NCc1ccc(Cl)cc1
- AC50 [1]: 29.1 µM [falling, single point]

Structure (SMILES): O=C(CCN1CCCCCC1)Nc1ccc(F)c(F)c1
- AC50 [1]: 35.5 µM [falling, single point]

Structure (SMILES): Nn1cnnc1N/N=C/c1cccc(Cl)c1Cl
- AC50 [1]: 35.5 µM [falling, single point]

Structure (SMILES): N#CC1(NC(=O)CN2CCN(S(=O)(=O)c3ccccc3F)CC2)CCCC1
- AC50 [1]: 5.62 µM [rising, single point]

Structure (SMILES): O=C(NCC1CCCO1)c1cc(S(=O)(=O)N2CCCCC2)ccc1Cl (configuration not stated)
- AC50 [1]: 29.1 µM [rising, single point]

Structure (SMILES): OCC12COC(c3ccccc3)N1C(c1ccccc1)OC2 (configuration not stated)
- AC50 [1]: 22.4 µM [rising, single point]

Structure (SMILES): COCCOc1ccc(C(F)(F)F)cc1Nc1nc2ccccc2o1
- AC50 [1]: 8.2 µM [falling, partial curve, poor fit]

Structure (SMILES): Cc1nc([N+](=O)[O-])c(Br)n1CC(=O)c1cccc([N+](=O)[O-])c1
- AC50 [1]: 17.8 µM [falling, partial curve, poor fit]

Structure (SMILES): COc1ccc(C(=O)NCCN2CCCC2)cc1
- AC50 [1]: 11.2 µM [rising, partial curve, poor fit]

Structure (SMILES): O=C(c1ccccc1)c1ccc2c(c1)OCCOCCOCCOCCO2
- AC50 [1]: 0.1 µM [falling, full curve, poor fit]

Structure (SMILES): CN(CC(=O)NCc1ccc2c(c1)OCO2)S(=O)(=O)c1ccc(Br)s1
- AC50 [1]: 2.31 µM [rising, partial curve, poor fit]

Structure (SMILES): CC(C)CNC(=O)c1ccc(C2SCC(=O)N2Cc2ccccc2)cc1 (configuration not stated)
- AC50 [1]: 35.5 µM [rising, partial curve, poor fit]

Structure (SMILES): COc1ccc(N2CC(C(=O)N/N=C/c3ccc(C)cc3)CC2=O)cc1 (configuration not stated)
- AC50 [1]: 35.5 µM [rising, single point]

Structure (SMILES): O=C1CCN(CCc2ccccc2)CCN1[C@H](COc1ccccc1)c1ccccc1
- AC50 [1]: 12.6 µM [falling, partial curve, poor fit]

Structure (SMILES): O=C(COC(=O)/C=C/c1ccc2ccccc2n1)NNC(=O)c1ccc([N+](=O)[O-])cc1
- AC50 [1]: 29.1 µM [falling, single point]

Structure (SMILES): Cc1ccc(NC(=O)Cn2nnc(-c3ccccc3-n3cnnn3)n2)c(C)c1
- AC50 [1]: 0.316 µM [rising, full curve, poor fit]

Structure (SMILES): Cc1ccc2cccc(NC3OC(=O)c4ccccc43)c2n1 (configuration not stated)
- AC50 [1]: 0.13 µM [rising, full curve, poor fit]

Structure (SMILES): Cc1ccc(C(=O)N/N=C\c2cccnc2)s1
- AC50 [1]: 11.2 µM [falling, single point]

Structure (SMILES): COc1ccc2c(-c3ccccc3)cc3nnnn3c2c1
- AC50 [1]: 2.24 µM [rising, full curve, poor fit]

Structure (SMILES): c1ccc(-c2oc3ncnc(NCCN4CCOCC4)c3c2-c2ccccc2)cc1
- AC50 [1]: 11.6 µM [falling, partial curve, poor fit]

Structure (SMILES): CCOC(=O)CCSc1cc(C)c2ccccc2n1
- AC50 [1]: 8.91 µM [rising, partial curve, poor fit]

Structure (SMILES): COc1ccc(NC(=O)C2(c3ccccc3)CCCC2)cc1
- AC50 [1]: 7.94 µM [rising, partial curve]

Structure (SMILES): c1ccc(-c2cc3ccccc3cn2)cc1
- AC50 [1]: 0.0651 µM [rising, full curve, poor fit]

Structure (SMILES): Cc1ccccc1C(=O)N1CCc2cc(-c3csc(NC(=O)CN4CCCC4)n3)ccc21
- AC50 [1]: 15.8 µM [falling, single point]

Structure (SMILES): C/C(=N\NC(=O)c1ccc(O)cc1)c1ccc2c(c1)Nc1ccccc1S2
- AC50 [1]: 1.84 µM [falling, partial curve, poor fit]

Structure (SMILES): O=C(Nc1ccc(-c2nc3ccccc3[nH]2)cc1)C1CCCO1 (configuration not stated)
- AC50 [1]: 10.3 µM [falling, partial curve]

Structure (SMILES): Cc1ccc2nc(-c3ccccc3C)oc(=O)c2c1
- AC50 [1]: 8.91 µM [falling, partial curve, poor fit]

Structure (SMILES): O=C(CCCc1ccccc1)N1CCc2ccccc21
- AC50 [1]: 16.4 µM [falling, single point]

Structure (SMILES): O=C(Nc1ccccc1Cl)c1ccccc1Cc1ccccc1
- AC50 [1]: 18.4 µM [rising, single point]

Structure (SMILES): Cc1ccc([N+](=O)[O-])cc1-c1ccc(/C=C(\C#N)c2[nH]nc(N)c2C#N)o1
- AC50 [1]: 16.4 µM [rising, partial curve]

Structure (SMILES): Oc1cccc(NC(=S)Nc2ccccc2)c1
- AC50 [1]: 3.16 µM [rising, full curve, poor fit]

Structure (SMILES): COc1ccc(C[C@H]2CN3C(=NC[C@@H]3C(C)C)N2CCNC(=O)c2ccc(C)c(Br)c2)cc1
- AC50 [1]: 12.6 µM [falling, single point]

Structure (SMILES): CCOc1cc(C2NC(=O)N(C)C(C)=C2C(=O)OC)cc(Br)c1O (configuration not stated)
- AC50 [1]: 0.461 µM [falling, partial curve, poor fit]

Structure (SMILES): CC(C)(O)C#Cc1ccc(C(=O)NCc2ccccc2F)cc1
- AC50 [1]: 1.84 µM [rising, full curve, poor fit]

Structure (SMILES): COc1cc(OC)cc(C(=O)NCC(=O)N2CC=C(c3ccccc3)CC2)c1
- AC50 [1]: 9.2 µM [rising, partial curve, poor fit]
- AC50 [2]: 9.2 µM [falling, partial curve]

Structure (SMILES): Cc1c(CCOC(=O)c2ccc(N3CCOCC3)c([N+](=O)[O-])c2)sc[n+]1CC#N
- AC50 [1]: 12.6 µM [rising, partial curve]
- AC50 [2]: 22.4 µM [falling, single point]

Structure (SMILES): Cn1c(=O)c2c(nc(Oc3ccccc3)n2C)n(C)c1=O
- AC50 [2]: 2.06 µM [rising, partial curve, poor fit]

Structure (SMILES): O=C(NC1CCN(C(=S)NCCc2ccccc2)CC1)C1CC1
- AC50 [1]: 35.5 µM [rising, single point]

Structure (SMILES): COC(=O)c1c[nH]n2c(=O)c(Cc3ccc(F)cc3Cl)c(C)nc12
- AC50 [1]: 2.82 µM [falling, full curve, poor fit]

Structure (SMILES): CCc1c(C)sc(NC(=O)c2cc(C(C)C)on2)c1C#N
- AC50 [1]: 2.24 µM [rising, full curve, poor fit]

Structure (SMILES): Cc1ccc(CNC(=O)c2ccc(CS(=O)(=O)Cc3ccc(F)cc3)o2)cc1
- AC50 [1]: 8.91 µM [rising, partial curve]

Structure (SMILES): CC1(C)S[C@@H]2[C@H](NC(=O)[C@H](N)c3ccc(O)cc3)C(=O)N2[C@H]1C(=O)O
- AC50 [1]: 29.1 µM [rising, single point]
